From publication PMC8366970
These are yes or no findings as the source states them, for the method shown. Binding seen in cells or lysates may run through a third protein. These calls come from enrichment with a bait or labelling near it, and not all partners need be listed.

Sequences of proteins named here, by UniProt entry; tags and fusion partners are left off. A change or cut given only in a name is not applied to a line headed by its entry.
UniProt Q8IL92: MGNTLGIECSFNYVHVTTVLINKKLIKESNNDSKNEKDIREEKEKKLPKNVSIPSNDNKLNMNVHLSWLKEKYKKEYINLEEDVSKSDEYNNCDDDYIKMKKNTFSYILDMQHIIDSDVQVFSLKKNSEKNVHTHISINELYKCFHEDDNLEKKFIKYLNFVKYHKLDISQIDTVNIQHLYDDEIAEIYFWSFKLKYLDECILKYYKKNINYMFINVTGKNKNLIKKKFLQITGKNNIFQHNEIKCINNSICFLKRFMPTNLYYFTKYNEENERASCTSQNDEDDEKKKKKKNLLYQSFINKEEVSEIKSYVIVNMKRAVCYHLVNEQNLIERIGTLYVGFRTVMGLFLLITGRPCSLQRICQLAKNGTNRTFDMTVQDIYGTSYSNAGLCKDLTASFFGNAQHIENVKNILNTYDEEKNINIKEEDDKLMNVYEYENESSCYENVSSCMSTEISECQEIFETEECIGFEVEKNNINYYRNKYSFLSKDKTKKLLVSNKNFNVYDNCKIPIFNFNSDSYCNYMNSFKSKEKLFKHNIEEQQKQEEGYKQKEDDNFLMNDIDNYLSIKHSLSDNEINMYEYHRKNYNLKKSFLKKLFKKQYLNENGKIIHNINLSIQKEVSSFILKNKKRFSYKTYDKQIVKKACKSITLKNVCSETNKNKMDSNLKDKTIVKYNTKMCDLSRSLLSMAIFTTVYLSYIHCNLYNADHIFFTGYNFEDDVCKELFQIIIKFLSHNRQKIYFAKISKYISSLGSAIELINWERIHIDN
UniProt Q8ILP4: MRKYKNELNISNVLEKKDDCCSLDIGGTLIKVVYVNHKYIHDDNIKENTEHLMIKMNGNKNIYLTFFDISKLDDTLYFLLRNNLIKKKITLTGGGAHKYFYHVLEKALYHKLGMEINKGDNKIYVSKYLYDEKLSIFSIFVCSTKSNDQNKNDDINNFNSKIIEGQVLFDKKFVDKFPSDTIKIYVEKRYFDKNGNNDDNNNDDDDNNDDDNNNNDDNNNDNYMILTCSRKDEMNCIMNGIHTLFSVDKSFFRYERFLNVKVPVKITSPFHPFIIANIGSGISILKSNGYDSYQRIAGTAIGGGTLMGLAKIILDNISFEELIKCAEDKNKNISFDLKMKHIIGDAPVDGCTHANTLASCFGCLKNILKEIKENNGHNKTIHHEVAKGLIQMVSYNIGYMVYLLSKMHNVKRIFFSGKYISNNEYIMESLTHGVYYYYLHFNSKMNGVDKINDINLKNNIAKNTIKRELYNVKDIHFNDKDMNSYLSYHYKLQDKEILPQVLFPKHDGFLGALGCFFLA

Tests used:
[1] = biological target: PfPanK2-GFP (Plasmodium falciparum) (UniProt Q8IL92); assay: affinity purification with mass spectrometry; GFP-Trap immunoprecipitation from lysates of P. falciparum PfPanK1-GFP and PfPanK2-GFP lines; untagged GFP and wild-type 3D7 lines as negative controls; two replicates
[2] = biological target: PfPanK1-GFP (Plasmodium falciparum) (UniProt Q8ILP4); assay: as above

binding [1]	binding [2]	Molecule
binds		PfPanK1 (from UniProt Q8ILP4) (enzyme)
	binds	PfPanK2 (from UniProt Q8IL92) (enzyme)
binds	binds	Pf14-3-3I (protein, UniProt C0H4V6 1-262) MATSEELKQLRCDCTYRSKLAEQAERYDEMADAMRTLVEQCVNNDKDELTVEERNLLSVAYKNAVGARRASWRIISSVEQKEMSKANVHNKNVAATYRKKVEEELNNICQDILNLLTKKLIPNTSESESKVFYYKMKGDYYRYISEFSCDEGKKEASNCAQEAYQKATDIAENELPSTHPIRLGLALNYSVFFYEILNQPHQACEMAKRAFDDAITEFDNVSEDSYKDSTLIMQLLRDNLTLWTSDLQGDQTEEKSKDEGLE
